PubChem BioAssay AID686943, Drosophila RNAi Screening Center – 2013

Assay: 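Search across the genome for regulators of signalling from receptor tyrosine kinase to ERK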 (primary screen)
System: Drosophila S2R+ haemocyte-like cells expressing YFP-tagged ERK (Rolled)
Knock-down reagent: long dsRNA against Drosophila genes
Conditions: insulin stimulation versus unstimulated cells; dose and duration not given
Measured: 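Per-plate z-scores of phospho-ERK immunostaining normalised to YFP-tagged ERK, measured with and without insulin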
Reading the numbers: replicate 1, z-score of dpERK with insulin: higher = more active ERK per ERK-YFP after insulin
In all, the deposit lists about 23,000 reagents; below is a random part of those with a known target gene and a result. 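Extra replicates exist only for a retested subset of genes; insulin dose and duration not given; both raised and lowered dpERK matter.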 The numbers tell different reagents against one gene apart. Not all columns of the deposit are shown. Not given: the amount of reagent, the time to read-out.

| Target gene | reagent | replicate 1, z-score of dpERK with insulin |
| --- | --- | --- |
| Dora | 1 | -1.35 |
| Dora | 2 | 1.28 |
| Dora | 3 | 0.47 |
| Dora | 4 | -2.37 |
| CG9143 | 1 | 0.96 |
| Hsp60A | 1 | -0.09 |
| SPARC | 1 | 0.73 |
| CG31523 | 1 | 0.32 |
| CG31523 | 2 | 1.23 |
| Vha16-2 | 1 | -0.25 |
| St4 | 1 | 0.83 |
| Spt5 | 1 | 0.92 |
| OS9 | 1 | -0.65 |
| RpLP0-like | 1 | -0.37 |
| Ogg1 | 1 | 0.47 |
| CG42709 | 1 | 0.05 |
| PolE4 | 1 | 0.24 |
| CG10300 | 1 | 0.51 |
| CCHa1-R | 1 | 0.32 |
| CCHa1-R | 2 | 0.06 |
| CG30391 | 1 | 0.14 |
| Indy | 1 | 0 |
| CG32488 | 1 | 0.82 |
| CG32488 | 2 | -0.17 |
| CG31600 | 1 | 1.01 |
| Fer1HCH | 1 | 0.31 |
| Ir94h | 1 | -0.07 |
| ppk27 | 1 | 1.23 |
| ppk27 | 2 | -0.51 |
| CG1738 | 1 | -0.08 |
| Phm | 1 | 0.82 |
| MtnB | 1 | 0.71 |
| mwh | 1 | -0.66 |
| mwh | 2 | -0.48 |
| CG34292 | 1 | -0.23 |
| Septin1 | 1 | 1.65 |
| CG9395 | 1 | 1.37 |
| CG13912 | 1 | -0.42 |
| CG15546 | 1 | 1.61 |
| CG15546 | 2 | 0.57 |
| CG34109 | 1 | 1.09 |
| CG34109 | 2 | -0.02 |
| CG34109 | 3 | 0.46 |
| Gr5a | 1 | 0.66 |
| lectin-21Cb | 1 | 0.3 |
| Nacalpha | 1 | -0.37 |
| bys | 1 | -0.01 |
| tacc | 1 | 0.3 |
| tacc | 2 | -0.24 |
| wnd | 1 | 0.88 |
| wnd | 2 | -0.53 |
| wnd | 3 | 0.21 |
| CG31741 | 1 | -0.21 |
| Blm | 1 | -0.33 |
| CG31627 | 1 | -1.17 |
| rudhira | 1 | -1.51 |
| rudhira | 2 | 0 |

Ordered by “replicate 1, z-score of dpERK with insulin” (low to high): 2 of the entries above
| Target gene | reagent | replicate 1, z-score of dpERK with insulin |
| --- | --- | --- |
| CG34292 | 1 | -0.23 |
| Septin1 | 1 | 1.65 |
